The other results are listed elsewhere or left out. Many values rest on one well or one pass, so single values are uncertain.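 Imaging used 1,536-well plates; nuclei positive for cleaved PARP by antibody were divided by total DNA-stained nuclei to yield the apoptosis fraction. Doses for screening kept most cells viable, and cell lines differ markedly in resting and induced cleaved-PARP levels.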
system: COLO800; test: cleaved PARP positive nuclei fraction relative to DMSO control; melanoma cells; higher = more apoptosis; conditions: library dose: low library concentration; 72 h

Going from `CS(=O)(=O)c1ccc(C(=O)Nc2ccc(Cl)c(-c3ccccn3)c2)c(Cl)c1` [vismodegib] + O=C(Nc1ccccc1)c1cc([N+](=O)[O-])ccc1Cl [GW9662] (first compound 1 µM, partner dose 2 µM) to `CN(c1ncccc1CNc1nc(Nc2ccc3c(c2)CC(=O)N3)ncc1C(F)(F)F)S(C)(=O)=O` + Oc1nc(-c2ccc(C(F)(F)F)cc2)nc2c1CSCC2 [XAV939] (first compound 0.08 µM, partner dose 2 µM), the “cleaved PARP positive nuclei fraction” value falls from 126% to 66.3%.

First: NC(=O)c1ccc(N(C(N)=O)c2c(F)cccc2F)nc1-c1ccc(F)cc1F + COc1ccc(-c2ccc3c(N4CCOCC4)nc(N4C[C@@H](C)O[C@@H](C)C4)nc3n2)cc1CO [KU0063794] (first compound 0.4 µM, partner dose 0.02 µM)
Second: CS(=O)(=O)c1ccc(C(=O)Nc2ccc(Cl)c(-c3ccccn3)c2)c(Cl)c1 [vismodegib] + COC(=O)c1sccc1S(=O)(=O)Nc1ccc(Nc2ccccc2)cc1OC [GSK0660] (first compound 1 µM, partner dose 1 µM)
The “cleaved PARP positive nuclei fraction” value of the first is higher: 96% for the first, 34.7% for the second.

First: Cn1sc(=O)n(Cc2ccccc2)c1=O + O=C(O)C(=O)Nc1sc2c(c1C(=O)O)CCNC2 [TCS401] (first compound 0.4 µM, partner dose 1.66667 µM)
Second: Cn1cnc2c(F)c(Nc3ccc(Br)cc3Cl)c(C(=O)NOCCO)cc21 [selumetinib] + N#Cc1c(O)c2c(-c3ccc(-c4ccccc4O)cc3)csc2[nH]c1=O [A769662] (first compound 0.015 µM, partner dose 2 µM)
The “cleaved PARP positive nuclei fraction” value of the first is lower: 46.8% for the first, 59.5% for the second.
